Assay results: paper PMC4627290
No constants are given. Whether binding was seen depends on the method and setting. Binding seen in cells or lysates may run through a third protein. Some entries that bind do so weakly or less than the wild type.

Chains of the proteins cited; added tags and fusions are not shown.
UniProt Q13283: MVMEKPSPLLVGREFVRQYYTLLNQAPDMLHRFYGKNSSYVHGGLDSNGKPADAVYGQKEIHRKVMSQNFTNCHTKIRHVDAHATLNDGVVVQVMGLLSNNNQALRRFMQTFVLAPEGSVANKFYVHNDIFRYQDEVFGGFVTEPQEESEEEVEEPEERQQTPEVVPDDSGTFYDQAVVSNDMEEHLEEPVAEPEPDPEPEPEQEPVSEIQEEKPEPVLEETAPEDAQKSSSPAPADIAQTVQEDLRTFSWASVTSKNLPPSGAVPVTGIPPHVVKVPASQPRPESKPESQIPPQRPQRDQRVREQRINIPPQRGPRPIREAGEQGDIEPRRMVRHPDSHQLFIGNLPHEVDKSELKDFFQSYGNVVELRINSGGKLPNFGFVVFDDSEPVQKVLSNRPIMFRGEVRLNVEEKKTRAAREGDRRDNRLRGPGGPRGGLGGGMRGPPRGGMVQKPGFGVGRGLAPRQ
UniProt Q15796: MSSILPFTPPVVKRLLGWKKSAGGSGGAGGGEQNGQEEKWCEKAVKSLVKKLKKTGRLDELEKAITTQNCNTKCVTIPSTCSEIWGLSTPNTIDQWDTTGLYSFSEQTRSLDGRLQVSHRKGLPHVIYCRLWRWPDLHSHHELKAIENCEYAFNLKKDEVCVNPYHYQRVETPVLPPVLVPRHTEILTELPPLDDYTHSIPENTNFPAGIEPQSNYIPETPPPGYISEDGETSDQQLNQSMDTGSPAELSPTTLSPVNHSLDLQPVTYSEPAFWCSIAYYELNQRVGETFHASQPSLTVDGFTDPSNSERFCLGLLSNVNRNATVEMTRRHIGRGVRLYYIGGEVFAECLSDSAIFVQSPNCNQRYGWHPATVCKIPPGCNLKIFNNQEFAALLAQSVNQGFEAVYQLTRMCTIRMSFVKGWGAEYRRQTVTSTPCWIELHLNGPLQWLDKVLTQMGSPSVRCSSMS
UniProt Q13485: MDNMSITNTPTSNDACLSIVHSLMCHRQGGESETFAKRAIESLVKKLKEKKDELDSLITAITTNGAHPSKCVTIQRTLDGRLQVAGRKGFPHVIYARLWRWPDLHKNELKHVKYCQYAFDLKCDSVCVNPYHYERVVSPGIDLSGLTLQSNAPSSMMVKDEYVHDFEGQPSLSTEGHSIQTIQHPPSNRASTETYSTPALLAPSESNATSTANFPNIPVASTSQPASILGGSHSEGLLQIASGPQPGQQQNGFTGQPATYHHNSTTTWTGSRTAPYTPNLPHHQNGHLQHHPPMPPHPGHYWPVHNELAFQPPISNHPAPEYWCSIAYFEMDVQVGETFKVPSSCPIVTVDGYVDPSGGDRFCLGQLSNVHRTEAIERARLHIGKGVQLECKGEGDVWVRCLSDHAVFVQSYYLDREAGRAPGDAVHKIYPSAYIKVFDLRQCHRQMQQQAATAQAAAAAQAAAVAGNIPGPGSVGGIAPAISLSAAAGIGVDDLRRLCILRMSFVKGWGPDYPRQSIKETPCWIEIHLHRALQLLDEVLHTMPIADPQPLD

Key:
[1] = target: Ras GTPase-activating protein SH3 domain-binding protein 1 (human (endogenous in MDA-MB-231 and MCF-7)) (UniProt Q13283); assay: co-IP; endogenous proteins in MCF-7 cells; data not shown
[2] = target: Ras GTPase-activating protein SH3 domain-binding protein 1 (human (endogenous in MDA-MB-231 and MCF-7)) (UniProt Q13283); assay: co-IP; endogenous proteins, MDA-MB-231 whole-cell extracts in RIPA buffer, 1 mg total protein, antibodies against G3BP1, Smad2, Smad3 or Smad4 overnight at 4°C, Protein A/G PLUS-Agarose, immunoblot; reciprocal; also cells transfected with Smad3 siRNA (interactions not disrupted)

| binding [1] | binding [2] | Substance |
| --- | --- | --- |
| binds | binds | Smad2 (from UniProt Q15796 1-467) |
| binds | binds | Smad4 (from UniProt Q13485 1-552) |
